Test results reported in patent CN114671953A.
Results are given in words; binding and its absence hold for the method and conditions named. Some entries that bind do so weakly or less than the wild type.

The chains behind the UniProt entries cited, without tags or fusion partners. Where a name states a change or a piece, a line headed by the entry shows the natural chain unless it says otherwise. Residues count along the entry.
UniProt Q96NY8: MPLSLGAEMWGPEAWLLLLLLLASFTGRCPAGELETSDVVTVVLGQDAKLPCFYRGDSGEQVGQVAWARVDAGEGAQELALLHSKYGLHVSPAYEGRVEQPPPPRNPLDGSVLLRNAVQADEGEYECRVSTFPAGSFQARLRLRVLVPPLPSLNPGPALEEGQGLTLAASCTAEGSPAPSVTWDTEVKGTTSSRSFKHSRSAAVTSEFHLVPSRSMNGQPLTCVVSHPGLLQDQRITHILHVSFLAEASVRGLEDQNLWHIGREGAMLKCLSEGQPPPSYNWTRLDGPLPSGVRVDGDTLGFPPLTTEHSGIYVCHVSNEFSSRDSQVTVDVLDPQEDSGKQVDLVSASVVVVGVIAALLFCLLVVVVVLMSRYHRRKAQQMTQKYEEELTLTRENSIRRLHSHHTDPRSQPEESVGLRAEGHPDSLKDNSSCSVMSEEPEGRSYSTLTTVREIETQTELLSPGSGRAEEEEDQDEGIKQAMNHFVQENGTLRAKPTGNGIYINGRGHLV
人Nectin-4: residues 32-349 of Q96NY8

Tests used:
人Nectin-4 (human) [1] = target: 人Nectin-4 (human) (UniProt Q96NY8); assay: ELISA (Fig. 2)
[2] = target: 食蟹猴Nectin-4 (cynomolgus monkey); assay: ELISA (Fig. 3 legend)
人Nectin-4 (human) [3] = target: 人Nectin-4 (human) (UniProt Q96NY8); assay: BLI, VHH-Fc on anti-hIgG Fc probe
人Nectin-4 (human) [4] = target: 人Nectin-4 (human) (UniProt Q96NY8); assay: ELISA, human Nectin-4 coated at 0.5 ug/mL, antibody 2 ug/mL
[5] = target: 细胞表面表达的Nectin-4(人乳腺癌细胞MCF-7、T-47D) (human) (UniProt Q96NY8); assay: flow cytometry on Nectin-4 expressing MCF-7 cells, 10 ug/mL or 5 nM
[6] = target: 食蟹猴Nectin-4 (cynomolgus monkey); assay: ELISA, cynomolgus Nectin-4 coated at 0.5 ug/mL, antibody titrated from 2 ug/mL

Measured: binding

B1: CMB7-20 (Fc fusion, not shown: a dimerising Fc or GST)
chain: QVQLVESGGGLVQPGGSLRLSCAASGSIFSMNVMGWYRQAPGKQRELVATITSGGSTNYADSVKGRFTISRDNANNTVYLQMNSLKPEDTAVYYCTGDQLGPLGTFSPIVYWGQGTQVTVSS
binds: 人Nectin-4 (human) [1] | [2] | 人Nectin-4 (human) [3] | 人Nectin-4 (human) [4] | [5] | [6]

B2: CMB7-6 (Fc fusion, not shown: a dimerising Fc or GST)
chain: QVQLVESGGGLVQPGGSLRLSCAASGSIFSINVMGWYRQAPGKQRELVATITSGGSVNYADSVKGRFTISRDNANNTVYLQMNTLKPEDTAVYYCTADQLGPLGLLSPTIYWGQGTLVTVSS
binds: 人Nectin-4 (human) [1] | [2] | 人Nectin-4 (human) [3] | 人Nectin-4 (human) [4] | [5] | [6]

B3: CMB7-12 (Fc fusion, not shown: a dimerising Fc or GST)
chain: QVQLVESGGGLVQPGGSLRLACAASGSIFSINVMGWYRQAPGKQREYVASVSRGGSVKYVDSVKGRFTVSRDNAKNTMYLEMNSLKPEDTAIYFCGAETKMGRGFDSWGQGTQVTVSS
binds: 人Nectin-4 (human) [1] | [2] | 人Nectin-4 (human) [3] | 人Nectin-4 (human) [4] | [5] | [6]

B4: CMB7-8 (Fc fusion, not shown: a dimerising Fc or GST)
chain: QVQLVESGGGLVQAGGSLRLSCAASGNIFSVNAMGWFRQAPGKQRELVAAITSGGSIRYVDSVKGRFTISRDNAKNTVYLQMNSLKPEDTAVYYCAAARGEPYEYDYWGQGTLVTVSS
binds: 人Nectin-4 (human) [1] | [2] | 人Nectin-4 (human) [3] | 人Nectin-4 (human) [4] | [5] | [6]

B5: CMB7-18 (Fc fusion, not shown: a dimerising Fc or GST)
chain: QVQLVESGGGLVQAGGSLRLSCAASGSIFSINAMGWHRQGPGDQRELVAAITSGGSTKYVDSVKGRFTISRDNAKNTVYLQMNSLKPEDTGVYYCAAMGGSYEYDYWGQGTQVTVSS
binds: 人Nectin-4 (human) [1] | [2] | 人Nectin-4 (human) [3] | 人Nectin-4 (human) [4] | [5] | [6]

B6: CMB7-7 (Fc fusion, not shown: a dimerising Fc or GST)
chain: QVQLVESGGGLVQAGGSLRLSCAASGSIFSINAMGWFRQAPGKQRELAAAITSGGSTKYADSVKGRFTISRDNAKNTVYLQMNRLKPEDTGVYYCAAATGEPFEYNYWGQGTQVTVSS
binds: 人Nectin-4 (human) [1] | [2] | 人Nectin-4 (human) [3] | 人Nectin-4 (human) [4] | [5] | [6]

B7: CMB7-22 (Fc fusion, not shown: a dimerising Fc or GST)
chain: QVQLVESGGGLVQAGGSLRLSCAASGSIFSINAMGWFRQAPGKQRELVAAITSGGSTNYAVSVKGRFTISSDKAKNTVYLQMNSLKPEDTAVYYCAAARGEPFEYEYWGQGTLVTVSS
binds: 人Nectin-4 (human) [1] | [2] | 人Nectin-4 (human) [3] | 人Nectin-4 (human) [4] | [5] | [6]

B8: CMB7-23 (Fc fusion, not shown: a dimerising Fc or GST)
chain: QVQLVESGGGLVQPGGSLRLSCAASGSDFTINVMGWYRQAPGKQRELVATVTSGGSLNYADSVKGRFTISRDNAKNTVYLQMNSLKPEDTAVYYCTADQFGPLGHLSPIIYWGQGTQVTVSS
binds: 人Nectin-4 (human) [1] | [2] | 人Nectin-4 (human) [3] | 人Nectin-4 (human) [4] | [5] | [6]

B9: CMB7-11 (Fc fusion, not shown: a dimerising Fc or GST)
chain: QVQLVESGGGLVQAGGSLRLSCAASGSIFSISAMGWFRQAPGNQREMVAAITKGGSVNYADSVKGRFTITRDNAKNTVYLQMNSLKPEDTAVYYCAAAVGAPFEYDYWGQGTQVTVSS
binds: 人Nectin-4 (human) [1] | [2] | 人Nectin-4 (human) [3] | 人Nectin-4 (human) [4] | [5] | [6]

B10: CMB7-9 (Fc fusion, not shown: a dimerising Fc or GST)
chain: QVQLVESGGGLVQPGGSLRLSCAASGSIFSINAMGWYRQAPGKQRELVASITNGGSTKYDDSVKGRFTISRDNAKNTVYLQMNSLKPEDTAVYYCAAASLVVGGTWEYDTWGQGTLVTVSS
binds: 人Nectin-4 (human) [1] | [2] | 人Nectin-4 (human) [3] | 人Nectin-4 (human) [4] | [5] | [6]

B11: CMB7-10 (Fc fusion, not shown: a dimerising Fc or GST)
chain: QVQLVESGGGLVQAGESLRLSCAASGSIFSINAMAWYRQAPGKQRELVAAITSGGSTKYADSVKGRFTISRDNAKNTVYLQMNSLKPEDTAVYYCAAMDRTTLEYDYWGQGTLVTVSS
binds: 人Nectin-4 (human) [1] | [2] | 人Nectin-4 (human) [3] | 人Nectin-4 (human) [4] | [5] | [6]

B12: CMB7-19 (Fc fusion, not shown: a dimerising Fc or GST)
chain: QVQLVESGGGLVQAGGSLGLSCAASESIFSYNAMGWFRQAPGKQRELVAAITSGGSIKYADSVKGRFTISRDNAKNTVYLQMNSLKPEDRGVYYCAAMDRTTLEYDYWGQGTLVTVSS
binds: 人Nectin-4 (human) [1] | [2] | 人Nectin-4 (human) [3] | 人Nectin-4 (human) [4] | [5] | [6]
